According to article PMC4368515:
Results are given in words; binding and its absence hold for the method and conditions named. In cells and extracts the contact can be indirect. A yes stands for co-enrichment or nearness to the bait. Other partners may have been found.

By UniProt entry, the sequences of proteins in these tests, tags left out. Residues count along the entry.
UniProt Q9NNX6, residues 59-404: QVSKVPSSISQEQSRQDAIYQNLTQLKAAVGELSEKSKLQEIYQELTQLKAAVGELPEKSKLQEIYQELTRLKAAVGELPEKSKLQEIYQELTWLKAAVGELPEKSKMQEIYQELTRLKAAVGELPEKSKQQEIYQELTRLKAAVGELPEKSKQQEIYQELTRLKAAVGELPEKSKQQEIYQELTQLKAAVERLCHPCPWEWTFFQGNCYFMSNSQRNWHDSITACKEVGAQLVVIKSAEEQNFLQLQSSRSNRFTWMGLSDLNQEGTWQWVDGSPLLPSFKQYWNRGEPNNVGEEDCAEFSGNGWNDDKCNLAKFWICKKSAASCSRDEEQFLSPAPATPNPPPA
UniProt P02788, residues 20-710: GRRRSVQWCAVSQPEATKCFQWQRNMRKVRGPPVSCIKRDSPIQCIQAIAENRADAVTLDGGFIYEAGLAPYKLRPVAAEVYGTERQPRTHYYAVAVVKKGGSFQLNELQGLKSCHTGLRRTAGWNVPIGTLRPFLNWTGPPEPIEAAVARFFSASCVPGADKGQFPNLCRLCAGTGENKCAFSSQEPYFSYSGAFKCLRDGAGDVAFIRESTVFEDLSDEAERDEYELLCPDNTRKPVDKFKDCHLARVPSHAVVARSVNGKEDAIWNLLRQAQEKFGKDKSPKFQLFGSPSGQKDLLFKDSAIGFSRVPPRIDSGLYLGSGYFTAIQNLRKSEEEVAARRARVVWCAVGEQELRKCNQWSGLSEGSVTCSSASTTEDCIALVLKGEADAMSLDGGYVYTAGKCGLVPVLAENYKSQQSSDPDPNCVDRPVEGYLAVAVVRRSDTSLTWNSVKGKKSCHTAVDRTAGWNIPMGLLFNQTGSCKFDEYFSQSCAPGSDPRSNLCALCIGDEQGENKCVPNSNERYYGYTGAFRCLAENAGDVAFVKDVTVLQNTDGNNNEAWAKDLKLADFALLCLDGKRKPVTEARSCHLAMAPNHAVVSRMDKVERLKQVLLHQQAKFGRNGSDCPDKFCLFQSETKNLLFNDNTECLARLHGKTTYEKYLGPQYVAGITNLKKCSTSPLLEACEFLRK

Target: DC-SIGN-Fc (UniProt Q9NNX6)
Experiment: affinity purification with mass spectrometry; DC-SIGN-Fc coated agarose beads incubated overnight with pooled colorectal mucus of 6 DC-SIGN high binders (flow-through of a Protein A/G column); two washes; boiled with DTT, 4-12% SDS PAGE; bands 2, 3 and 4 cut out, tryptic digest, ion trap mass spectrometry, Mascot; only the target purified

human lactoferrin from colorectal mucus (from UniProt P02788 20-710)
binding: binds
